Values from PubChem BioAssay AID1224827 (NIAID, 2016).
Test: 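Confirm genes whose knock-down changes LPS-driven TNF promoter activity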 (follow-up of hits). System: RAW264.7 G9 mouse macrophage reporter clone. Reagent: single siRNA against mouse genes, 100 nM siRNA. Timing: siRNA for 2 days, then LPS about 16 h. Conditions: bacterial lipopolysaccharide (LPS), 10 ng/ml, cells fixed after overnight (about 16 h) stimulation. Read-out: 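TNF promoter reporter red fluorescence in nuclei, background subtracted, normalised per plate and to non-targeting control siRNA, as z-scores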. Direction: TNF reporter z-score, mean: higher = stronger Tnf promoter reporter signal. Hit rule: 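An siRNA is called active when its mean z-score over replicates is at least +2 or at most -2; control wells get no call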.
This is one part, drawn at random, of about 3,800 deposited reagents. In the full data, about 2,200 (57%) were called active. 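Active means a strong reporter change in either direction; calls are per siRNA, not per gene; qiagen siRNAs gave weaker effects.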 A number with no mark means an inactive call. Reagents against one gene are numbered here. Further read-outs or replicates are left out here.

Target gene	reagent	TNF reporter z-score, mean
Ndor1 (NADPH dependent diflavin oxidoreductase 1)	1	-1.42
Ndor1 (NADPH dependent diflavin oxidoreductase 1)	2	-4.26 (active)
Ndor1 (NADPH dependent diflavin oxidoreductase 1)	3	-4.25 (active)
Ndor1 (NADPH dependent diflavin oxidoreductase 1)	4	6.52 (active)
Ndor1 (NADPH dependent diflavin oxidoreductase 1)	5	3.38 (active)
Ndor1 (NADPH dependent diflavin oxidoreductase 1)	6	1.32
Zmat4 (zinc finger, matrin type 4)	1	2.36 (active)
Zmat4 (zinc finger, matrin type 4)	2	0.748
Zmat4 (zinc finger, matrin type 4)	3	-4.62 (active)
Zmat4 (zinc finger, matrin type 4)	4	5.13 (active)
Zmat4 (zinc finger, matrin type 4)	5	3.37 (active)
Zmat4 (zinc finger, matrin type 4)	6	-0.814
Fev (FEV transcription factor, ETS family member)	1	2.47 (active)
Fev (FEV transcription factor, ETS family member)	2	-2.04 (active)
Fev (FEV transcription factor, ETS family member)	3	-3.22 (active)
Fev (FEV transcription factor, ETS family member)	4	3.74 (active)
Fev (FEV transcription factor, ETS family member)	5	-1.21
Fev (FEV transcription factor, ETS family member)	6	-3.01 (active)
Usp8 (ubiquitin specific peptidase 8)	1	4.4 (active)
Usp8 (ubiquitin specific peptidase 8)	2	-0.905
Usp8 (ubiquitin specific peptidase 8)	3	-4.41 (active)
Usp8 (ubiquitin specific peptidase 8)	4	5.66 (active)
Usp8 (ubiquitin specific peptidase 8)	5	-0.185
Usp8 (ubiquitin specific peptidase 8)	6	-1.61
Gnpnat1 (glucosamine-phosphate N-acetyltransferase 1)	1	1.26
Gnpnat1 (glucosamine-phosphate N-acetyltransferase 1)	2	-2.21 (active)
Gnpnat1 (glucosamine-phosphate N-acetyltransferase 1)	3	-3.08 (active)
Gnpnat1 (glucosamine-phosphate N-acetyltransferase 1)	4	2.91 (active)
Gnpnat1 (glucosamine-phosphate N-acetyltransferase 1)	5	1.91
Gnpnat1 (glucosamine-phosphate N-acetyltransferase 1)	6	-3.72 (active)
Ifi30 (interferon gamma inducible protein 30)	1	-1.41
Ifi30 (interferon gamma inducible protein 30)	2	-3.76 (active)
Ifi30 (interferon gamma inducible protein 30)	3	-4.77 (active)
Ifi30 (interferon gamma inducible protein 30)	4	2.41 (active)
Ifi30 (interferon gamma inducible protein 30)	5	0.213
Ifi30 (interferon gamma inducible protein 30)	6	-1.09
Nle1 (notchless homolog 1)	1	5.87 (active)
Nle1 (notchless homolog 1)	2	-2.75 (active)
Nle1 (notchless homolog 1)	3	-5.32 (active)
Nle1 (notchless homolog 1)	4	0.255
Nle1 (notchless homolog 1)	5	-0.799
Nle1 (notchless homolog 1)	6	-3.76 (active)

In a second layout: results already given
Nle1 (notchless homolog 1) #2 — TNF reporter z-score, mean = -2.75 (active)
Nle1 (notchless homolog 1) #3 — TNF reporter z-score, mean = -5.32 (active)
Nle1 (notchless homolog 1) #4 — TNF reporter z-score, mean = 0.255
Nle1 (notchless homolog 1) #5 — TNF reporter z-score, mean = -0.799
